Experimental findings from PMC10023680 are described below.

Protein sequences, listed by entry. Tags and fused reporters are not part of them. Residues count along the entry.
UniProt Q92556, residues 1-113: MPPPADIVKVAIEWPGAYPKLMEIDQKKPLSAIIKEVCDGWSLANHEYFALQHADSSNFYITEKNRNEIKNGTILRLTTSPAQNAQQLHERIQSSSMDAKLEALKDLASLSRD
UniProt P60953, residues 1-178: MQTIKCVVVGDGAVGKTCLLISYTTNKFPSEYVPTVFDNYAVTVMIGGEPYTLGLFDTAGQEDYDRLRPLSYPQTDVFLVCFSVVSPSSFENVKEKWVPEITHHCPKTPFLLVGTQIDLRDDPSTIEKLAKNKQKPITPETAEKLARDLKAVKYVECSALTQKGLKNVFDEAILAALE

The assay concerns the target GST-tagged ELMO1-RBD (residues 1-113), wild-type (human) (UniProt Q92556). In words: SPR; Biacore T200; GST-ELMO1-RBD (1-113, wild-type or mutants) captured on CM5 chip with GST Capture Kit; GTPγS-bound RhoG injected at 2.2-35.5 μM (Rac1 and Cdc42 measured similarly); 10 mM HEPES pH 7.5, 150 mM NaCl, 1 mM MgCl2, 0.005% P-20; steady-state affinity analysis; both purified. On the technique in general: In SPR one partner is held on a chip, and binding of the other changes the refractive index at the surface.

No constants are given. Whether binding was seen depends on the method and setting. Some results given as binding are weak or reduced against the parent protein; the word gives no strength.

Turning to “Cdc42 (residues 1-178) (from UniProt P60953 1-178) (domain or fragment)”, the binding entry is “binds weakly”.
